{"sequences": {"note": "Amino acid sequences for entries named in this document (tags omitted).", "UniProt P16671": "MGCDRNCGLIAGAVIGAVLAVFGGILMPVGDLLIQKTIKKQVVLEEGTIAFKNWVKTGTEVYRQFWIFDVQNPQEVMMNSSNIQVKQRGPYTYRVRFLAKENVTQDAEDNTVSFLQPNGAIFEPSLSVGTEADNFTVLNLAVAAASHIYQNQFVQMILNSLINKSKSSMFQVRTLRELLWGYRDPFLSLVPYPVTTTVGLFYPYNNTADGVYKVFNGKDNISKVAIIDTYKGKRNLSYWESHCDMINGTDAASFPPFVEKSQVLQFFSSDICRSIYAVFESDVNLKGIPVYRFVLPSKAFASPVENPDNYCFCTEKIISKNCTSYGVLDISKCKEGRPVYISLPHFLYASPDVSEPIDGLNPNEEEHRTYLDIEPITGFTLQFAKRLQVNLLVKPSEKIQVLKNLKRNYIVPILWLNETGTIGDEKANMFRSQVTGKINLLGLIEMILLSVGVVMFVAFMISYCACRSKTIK", "UniProt O75608": "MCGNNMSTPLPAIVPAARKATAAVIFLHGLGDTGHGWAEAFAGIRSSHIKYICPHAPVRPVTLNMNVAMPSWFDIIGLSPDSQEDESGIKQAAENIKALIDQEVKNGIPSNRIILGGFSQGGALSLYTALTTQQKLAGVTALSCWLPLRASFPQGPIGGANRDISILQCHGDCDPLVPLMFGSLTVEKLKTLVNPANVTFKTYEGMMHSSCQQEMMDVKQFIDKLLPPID", "UniProt P62491": "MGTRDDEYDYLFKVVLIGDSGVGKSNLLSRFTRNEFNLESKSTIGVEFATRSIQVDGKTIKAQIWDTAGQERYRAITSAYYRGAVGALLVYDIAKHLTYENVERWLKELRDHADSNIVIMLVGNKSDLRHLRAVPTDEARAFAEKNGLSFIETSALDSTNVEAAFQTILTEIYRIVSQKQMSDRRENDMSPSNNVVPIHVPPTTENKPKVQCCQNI"}, "source": "paper PMC12210380", "key": {"[1]": {"target": "myc-tagged wild-type CD36 (Cluster of Differentiation 36) (UniProt P16671)", "assay": "co-IP; podocytes transfected with myc-CD36 and flag-APT1 plasmids, with or without high glucose (30 mM, 24 h); whole-cell extracts immunoprecipitated by anti-myc antibody overnight at 4°C, Western blot"}, "[2]": {"target": "flag-tagged wild-type APT1 (acyl-protein thioesterase 1) (UniProt O75608)", "assay": "co-IP; reverse: podocytes transfected with myc-CD36 and flag-APT1 plasmids, with or without high glucose; immunoprecipitated with a flag antibody, Western blot"}, "[3]": {"target": "Rab11a (human (endogenous in HPCs)) (UniProt P62491)", "assay": "co-IP; podocytes under high glucose; whole-cell extracts, immunoprecipitation overnight at 4°C, Western blot; bait not given"}}, "note": "These are yes or no findings as the source states them, for the method shown. Binding seen in cells or lysates may run through a third protein. Some entries that bind do so weakly or less than the wild type.", "data": [{"substance": "flag-tagged wild-type APT1 (acyl-protein thioesterase 1) (from UniProt O75608 1-230) (enzyme)", "values": [{"measurement": "binding", "setting": "[1]", "value": "binds"}]}, {"substance": "myc-tagged wild-type CD36 (Cluster of Differentiation 36) (from UniProt P16671 1-472) (receptor)", "values": [{"measurement": "binding", "setting": "[2]", "value": "binds"}]}, {"substance": "CD36 (Cluster of Differentiation 36) in podocytes (from UniProt P16671 1-472) (receptor)", "values": [{"measurement": "binding", "setting": "[3]", "value": "binds"}]}]}
